Consider one substance from paper PMC11597407.

Chains of the proteins cited; added tags and fusions are not shown. Residues count along the entry.
UniProt P12023, residues 18-770: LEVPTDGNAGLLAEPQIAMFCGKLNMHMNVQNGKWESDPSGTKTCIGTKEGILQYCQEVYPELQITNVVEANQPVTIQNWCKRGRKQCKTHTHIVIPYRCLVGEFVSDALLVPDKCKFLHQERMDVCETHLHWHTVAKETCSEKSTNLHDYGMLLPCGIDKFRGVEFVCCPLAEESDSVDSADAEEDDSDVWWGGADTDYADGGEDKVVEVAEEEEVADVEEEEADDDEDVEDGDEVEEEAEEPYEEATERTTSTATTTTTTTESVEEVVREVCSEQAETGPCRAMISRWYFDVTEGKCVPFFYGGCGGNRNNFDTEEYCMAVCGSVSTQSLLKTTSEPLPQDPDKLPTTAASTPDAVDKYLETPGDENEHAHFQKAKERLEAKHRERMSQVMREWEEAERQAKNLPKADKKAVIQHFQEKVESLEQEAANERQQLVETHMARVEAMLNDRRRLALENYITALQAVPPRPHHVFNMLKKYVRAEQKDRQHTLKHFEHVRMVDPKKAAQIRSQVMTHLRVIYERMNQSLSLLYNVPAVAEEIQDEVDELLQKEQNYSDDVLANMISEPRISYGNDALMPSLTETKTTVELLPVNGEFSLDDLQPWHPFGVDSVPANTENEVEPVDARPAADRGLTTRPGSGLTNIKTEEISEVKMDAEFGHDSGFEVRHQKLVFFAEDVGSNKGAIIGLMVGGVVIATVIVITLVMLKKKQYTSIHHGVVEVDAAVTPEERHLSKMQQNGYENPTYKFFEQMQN
UniProt P26039: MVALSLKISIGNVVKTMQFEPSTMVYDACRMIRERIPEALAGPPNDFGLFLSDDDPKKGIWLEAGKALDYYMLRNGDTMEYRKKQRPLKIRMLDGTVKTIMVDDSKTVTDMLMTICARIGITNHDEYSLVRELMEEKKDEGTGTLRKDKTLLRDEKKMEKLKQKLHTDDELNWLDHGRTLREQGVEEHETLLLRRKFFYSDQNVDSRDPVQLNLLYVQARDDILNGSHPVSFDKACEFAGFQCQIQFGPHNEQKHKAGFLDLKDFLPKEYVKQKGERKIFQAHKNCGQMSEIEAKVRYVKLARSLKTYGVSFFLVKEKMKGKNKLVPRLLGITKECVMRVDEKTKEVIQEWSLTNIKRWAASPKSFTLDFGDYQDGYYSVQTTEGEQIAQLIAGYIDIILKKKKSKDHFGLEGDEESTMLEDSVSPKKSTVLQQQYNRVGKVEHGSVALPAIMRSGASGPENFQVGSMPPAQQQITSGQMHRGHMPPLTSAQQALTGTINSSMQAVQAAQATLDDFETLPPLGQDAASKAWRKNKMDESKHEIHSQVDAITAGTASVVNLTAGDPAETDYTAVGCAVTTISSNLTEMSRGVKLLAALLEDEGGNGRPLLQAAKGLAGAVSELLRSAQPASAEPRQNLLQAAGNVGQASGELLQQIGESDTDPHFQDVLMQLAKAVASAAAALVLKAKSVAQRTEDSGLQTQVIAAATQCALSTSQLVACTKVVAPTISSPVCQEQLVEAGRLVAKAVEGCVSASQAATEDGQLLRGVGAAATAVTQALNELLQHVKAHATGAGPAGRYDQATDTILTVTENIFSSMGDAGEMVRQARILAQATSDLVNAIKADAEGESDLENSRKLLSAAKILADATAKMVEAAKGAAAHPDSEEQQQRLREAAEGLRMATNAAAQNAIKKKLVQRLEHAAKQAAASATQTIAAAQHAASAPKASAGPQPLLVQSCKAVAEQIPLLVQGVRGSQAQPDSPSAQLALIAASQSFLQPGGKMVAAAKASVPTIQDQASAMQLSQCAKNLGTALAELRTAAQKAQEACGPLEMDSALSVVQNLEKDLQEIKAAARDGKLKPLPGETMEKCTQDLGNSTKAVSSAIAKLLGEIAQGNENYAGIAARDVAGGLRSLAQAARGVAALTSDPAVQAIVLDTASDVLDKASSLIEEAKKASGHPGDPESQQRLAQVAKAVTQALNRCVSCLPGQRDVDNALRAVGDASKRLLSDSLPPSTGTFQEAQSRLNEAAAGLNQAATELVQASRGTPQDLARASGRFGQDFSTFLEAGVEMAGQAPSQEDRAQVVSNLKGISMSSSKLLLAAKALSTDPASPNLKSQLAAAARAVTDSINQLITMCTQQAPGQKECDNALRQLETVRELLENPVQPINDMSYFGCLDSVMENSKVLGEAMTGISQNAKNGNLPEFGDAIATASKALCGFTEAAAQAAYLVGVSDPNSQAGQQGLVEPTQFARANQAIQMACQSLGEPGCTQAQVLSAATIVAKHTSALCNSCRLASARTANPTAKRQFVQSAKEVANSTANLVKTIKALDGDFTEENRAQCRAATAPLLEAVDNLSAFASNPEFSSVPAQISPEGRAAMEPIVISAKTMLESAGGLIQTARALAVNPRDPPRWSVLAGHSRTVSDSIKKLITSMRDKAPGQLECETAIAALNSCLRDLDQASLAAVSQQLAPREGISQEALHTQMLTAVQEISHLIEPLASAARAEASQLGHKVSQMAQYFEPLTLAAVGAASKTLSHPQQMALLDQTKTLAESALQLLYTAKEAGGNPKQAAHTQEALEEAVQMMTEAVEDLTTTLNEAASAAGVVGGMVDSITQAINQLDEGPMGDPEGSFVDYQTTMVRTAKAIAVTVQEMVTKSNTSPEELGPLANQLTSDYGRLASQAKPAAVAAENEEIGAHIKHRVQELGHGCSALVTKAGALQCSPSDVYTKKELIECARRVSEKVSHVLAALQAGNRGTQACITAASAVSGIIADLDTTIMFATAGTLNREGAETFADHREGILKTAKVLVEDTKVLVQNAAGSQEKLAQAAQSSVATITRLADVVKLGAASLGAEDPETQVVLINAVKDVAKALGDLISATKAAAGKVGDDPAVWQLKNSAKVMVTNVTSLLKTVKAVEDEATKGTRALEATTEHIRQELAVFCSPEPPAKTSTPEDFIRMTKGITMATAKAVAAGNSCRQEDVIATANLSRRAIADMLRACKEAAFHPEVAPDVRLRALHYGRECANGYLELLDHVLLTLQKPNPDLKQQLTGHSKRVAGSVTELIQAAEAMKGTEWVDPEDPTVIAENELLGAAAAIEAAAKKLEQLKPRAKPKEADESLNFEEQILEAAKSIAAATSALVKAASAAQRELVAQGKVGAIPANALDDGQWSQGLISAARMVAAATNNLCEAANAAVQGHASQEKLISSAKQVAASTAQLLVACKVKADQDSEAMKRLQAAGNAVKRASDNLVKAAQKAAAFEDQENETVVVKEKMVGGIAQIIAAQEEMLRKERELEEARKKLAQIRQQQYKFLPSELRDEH

Results are given in words; binding and its absence hold for the method and conditions named. Binding seen in cells or lysates may run through a third protein. Some binding calls cover weakened binding; strength is not graded here.

The target of the experiment is APP, endogenous in mouse primary neuronal cultures (mouse (endogenous in primary cortical neurons)) (UniProt P12023). In words: proximity ligation; Duolink PLA with anti-talin1 (97H6) and anti-APP C-terminal antibodies in fixed, permeabilised mouse primary neuronal cultures, with Homer staining as synaptic marker.

Take “talin1, endogenous in mouse primary neuronal cultures (from UniProt P26039 1-2541)”: the binding entry is “binds”.
